Data taken from PMC7935965.
No constants are given. Whether binding was seen depends on the method and setting. Binding seen in cells or lysates may run through a third protein. Some binding calls cover weakened binding; strength is not graded here. Where a sequence is shown, tags or fusion partners need not be part of it.

Chains of the proteins cited; added tags and fusions are not shown.
UniProt Q9BUR4: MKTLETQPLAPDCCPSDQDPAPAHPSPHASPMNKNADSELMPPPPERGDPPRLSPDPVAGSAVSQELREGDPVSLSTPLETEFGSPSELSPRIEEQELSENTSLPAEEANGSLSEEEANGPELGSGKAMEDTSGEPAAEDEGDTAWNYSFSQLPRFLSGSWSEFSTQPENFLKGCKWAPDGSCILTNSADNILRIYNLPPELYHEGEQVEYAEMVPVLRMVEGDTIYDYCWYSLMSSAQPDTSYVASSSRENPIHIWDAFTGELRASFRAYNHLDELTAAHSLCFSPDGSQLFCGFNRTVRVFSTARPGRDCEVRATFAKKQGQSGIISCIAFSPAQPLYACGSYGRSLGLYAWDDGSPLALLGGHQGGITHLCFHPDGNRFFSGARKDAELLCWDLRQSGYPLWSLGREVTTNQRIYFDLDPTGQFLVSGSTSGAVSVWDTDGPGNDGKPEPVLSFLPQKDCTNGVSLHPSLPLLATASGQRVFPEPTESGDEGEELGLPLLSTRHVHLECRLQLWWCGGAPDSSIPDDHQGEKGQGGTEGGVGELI

Target: T1, Flag-RecQL4 (HEK293) (human) (UniProt O94761)
T1 sequence: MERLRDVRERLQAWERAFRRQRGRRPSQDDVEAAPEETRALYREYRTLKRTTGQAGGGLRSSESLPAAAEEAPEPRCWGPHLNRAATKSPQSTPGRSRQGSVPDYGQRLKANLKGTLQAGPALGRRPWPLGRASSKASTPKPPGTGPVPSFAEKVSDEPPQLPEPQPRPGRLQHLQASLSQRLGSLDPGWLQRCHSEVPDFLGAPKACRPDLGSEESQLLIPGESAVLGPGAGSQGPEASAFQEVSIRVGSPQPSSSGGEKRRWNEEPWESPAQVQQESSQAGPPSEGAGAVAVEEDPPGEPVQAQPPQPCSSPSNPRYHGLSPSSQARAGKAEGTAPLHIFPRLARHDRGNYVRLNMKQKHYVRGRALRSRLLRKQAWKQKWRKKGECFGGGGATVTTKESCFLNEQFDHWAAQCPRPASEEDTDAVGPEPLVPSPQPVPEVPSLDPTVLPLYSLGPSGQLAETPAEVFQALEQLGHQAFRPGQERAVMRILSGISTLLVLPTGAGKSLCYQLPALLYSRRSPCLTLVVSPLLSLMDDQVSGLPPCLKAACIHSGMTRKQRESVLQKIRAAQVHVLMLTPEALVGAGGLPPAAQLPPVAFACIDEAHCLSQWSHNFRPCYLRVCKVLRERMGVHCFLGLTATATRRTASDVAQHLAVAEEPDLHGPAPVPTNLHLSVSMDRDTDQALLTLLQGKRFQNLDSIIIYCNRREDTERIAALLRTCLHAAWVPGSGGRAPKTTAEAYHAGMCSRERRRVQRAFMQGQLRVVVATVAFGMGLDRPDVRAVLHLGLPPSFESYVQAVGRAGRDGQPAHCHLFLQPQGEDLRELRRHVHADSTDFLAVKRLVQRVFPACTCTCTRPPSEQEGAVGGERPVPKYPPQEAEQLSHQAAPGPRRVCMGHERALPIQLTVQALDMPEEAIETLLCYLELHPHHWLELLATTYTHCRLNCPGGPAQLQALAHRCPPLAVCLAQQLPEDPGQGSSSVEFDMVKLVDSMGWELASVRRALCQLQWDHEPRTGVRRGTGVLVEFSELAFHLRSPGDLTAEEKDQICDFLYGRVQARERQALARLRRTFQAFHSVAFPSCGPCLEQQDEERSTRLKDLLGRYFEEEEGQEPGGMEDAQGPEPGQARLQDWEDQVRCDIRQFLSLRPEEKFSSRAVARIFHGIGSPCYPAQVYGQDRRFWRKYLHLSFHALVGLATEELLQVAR
Assay: co-IP; anti-Flag immunoprecipitation from lysate of HEK293 cells transfected with Flag-RecQL4; western blot for endogenous WRAP53β

endogenous WRAP53β (from UniProt Q9BUR4 1-548)
binding: binds
